Experimental data published in US11034717B2, “Farnesoid X receptor modulators” (Intercept Pharmaceuticals, Inc., priority 2015, dated 2021).

Tested on: HepG2 cells
Experiment: In-vitro cytotoxicity, ATP content
Assay type: cell-based
Settings: Homo sapiens, HepG2, Table 5B
Text: To evaluate in-vitro cytotoxicity of a compound of the invention, two different assay methods are employed. The assays evaluate cell viability by measuring ATP levels and cytotoxicity by measuring LDH release. […] It has been called the “molecular unit of currency” when it comes to intracellular energy transfer.
An additional method to determine the viability of cells is to detect the integrity of the membrane that defines the cellular compartmentalization. Measuring the leakage of components out of the cytoplasm, in damaged cell membranes, indicates loss of membrane integrity, and LDH release is the method used to determine common toxicity in cells. HepG2 cells are treated with a compound of the invention, and serial dilutions are performed. LCA dilutions are added to the plated cells as assay controls together with no-cell and untreated cells. The assay is performed in triplicate for each test compound concentration.

`CC/C(=C(\c1ccccc1)c1ccc(OCCN(C)C)cc1)c1ccccc1` [Tamoxifen, reference compound] was tested, and the EC50 was 20 ± 5 µM.
